According to the supplement of paper PMC11237882:
This is one part of the list. Values are worked out from sequencing counts and are noisy.

T1: Homer1 EVH1 domain
T1 chain: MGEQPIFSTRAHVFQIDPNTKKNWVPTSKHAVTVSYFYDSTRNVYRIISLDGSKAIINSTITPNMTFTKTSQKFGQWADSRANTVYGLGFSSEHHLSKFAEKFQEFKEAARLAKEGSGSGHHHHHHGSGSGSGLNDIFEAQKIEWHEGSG

B1: unnamed (peptide)
chain: VNKYLDFSLFKHRGFLIYLSGNVIMFLGFFAPIIFL
B2: unnamed (peptide)
chain: QAISLLIVTNVGAYILYFFCATLSYYFVFDHALMKH
B3: unnamed (peptide)
chain: SYLSLQTVTLAVLLFGYAINCLERRDKSQIFTILEH
B4: unnamed (peptide)
chain: ISLVLCVVLGLMLCMQRCRNTSQFDGDYISKLPKSN
B5: unnamed (peptide)
chain: GFCAFLGSWLVPFAYLTVLDLSKSLSAALLTAALLT
B6: unnamed (peptide)
chain: RSRAFSTWGSHIIAVALFFGSGTFTYLTTSFPGSMN
B7: unnamed (peptide)
chain: LIKYRRLRIMTNIYLLNLAISDLLFLVTLPFWIHYV
B8: unnamed (peptide)
chain: RLIFITVLFSIIIWVVWISMLLRGNPQFQRQPQWDD
B9: unnamed (peptide)
chain: MVVTPRRAAVAIAGCWILSFVVGLTPMFGWNNLSAV
B10: unnamed (peptide)
chain: FCDIAPLLQVACINTHLIEKINFLLSALVILSSLAF
B11: unnamed (peptide)
chain: PPCKTGAWIVPAIMACYLLVANILLVNPLIAVFNNT
B12: unnamed (peptide)
chain: MKILFVEPAIFLSAFAMTLTGPLTTQYVYRRIWEET
B13: unnamed (peptide)
chain: RSGLPRWILACCLFLSVLVMLWLSCSTLVTAPGQHL
B14: unnamed (peptide)
chain: MLFSALLLEVIWILAADGGQHWTYEGPHGQDHWPAS
B15: unnamed (peptide)
chain: AFKDMKASPEIISGRMTTALILYSAIFMRFAYRVQP
B16: unnamed (peptide)
chain: NKGSGTTSGTTRLLSGHTCFTLTGLLGTLVTMGLLT
B17: unnamed (peptide)
chain: SPNPVAMETRSDNRPSVPVQFQYFLPTYPPSAYPRS
B18: unnamed (peptide)
chain: SRGRHREKEDIKITKERTPESEEENVEWETNRDDSG
B19: unnamed (peptide)
chain: MEETKEWKSEEELHRRKSSRRHSLNQQTKALQYLRR
B20: unnamed (peptide)
chain: GLRAHLAAIERWEDRPRRSQVLQVLGLALFLTLGTL
B21: unnamed (peptide)
chain: MVSYWDTGVLLCALLSCLLLTGSSSGSKLKDPELSL
B22: unnamed (peptide)
chain: SLCWGLSVLYGLLLTFLLTRVTFCGPREIHYLFCDM
B23: unnamed (peptide)
chain: HPDAVPALFRTVPVFTLPSQLPDFLGALQQPRAPRS
B24: unnamed (peptide)
chain: NDIREKREKIKEMMKHAWDNYRTYGWGHNELRPIAR
B25: unnamed (peptide)
chain: VMLNMATEILKAFGLKGIISKTEGAGINKLIMAKKK
B26: unnamed (peptide)
chain: ILQEKITRGKYGEGAKQETFTFALTLVFIQCVINAV
B27: unnamed (peptide)
chain: PIKTTMLLKIQQNIGVIAAFTVAVLAAGISFHYFSD
B28: unnamed (peptide)
chain: SVLYGWSFFLAPAGIFFSLLAGLLFLVVDRHIQIHH
B29: unnamed (peptide)
chain: RGGIFGLLGCLQAIGLFASMAAVLLGGARASRLLFH
B30: unnamed (peptide)
chain: GTGLTPLHLSDDGEGGTFHFHDPPPPYTAYKYPDIG
B31: unnamed (peptide)
chain: TPIAARFGDLITLAILAWISQGLYSCLETYYYISPL
B32: unnamed (peptide)
chain: EKENQDKLVKFMIRIGVFSILYLVPLLVVIGCYFYE
B33: unnamed (peptide)
chain: GYISLVQCILQVFFFIALASSEVAILTVMSYDRYAA
B34: unnamed (peptide)
chain: EKIKELEAEIQQLRTQAQVLSSSSGIPGPPAAPPLP
B35: unnamed (peptide)
chain: NIFIALLVILISYTFIFITILKMHSASVYQKPLSTS
B36: unnamed (peptide)
chain: PSLRQQLFSYAILGFALSEAMGLFCLMVAFLILFAM
B37: unnamed (peptide)
chain: DPPSVFNMPEADLKRIFWVLSLPIITLLFLTTPDCR
B38: unnamed (peptide)
chain: FSKLDYSGIALLIMGSFVPWLYYSFYCSPQPRLIYL
B39: unnamed (peptide)
chain: LMVITGVALCCWRHSKASASFSEQKNLMRIPGSSDG
B40: unnamed (peptide)
chain: SSLRWAPGPLHVLQVAMAFGLALATLVQSVGHISGA
B41: unnamed (peptide)
chain: RYHHYCTRSQLAWNSAVSLVLFVWLSSAFWAALPLP
B42: unnamed (peptide)
chain: APAFPPPLLLPPPTGDLRLQPPPPLPFGLGGFPPTP
B43: unnamed (peptide)
chain: PFGEYFCQVLGALTVFYPSIALWLLAFISADRYMAI
B44: unnamed (peptide)
chain: SCIVCLFVGLYYNVIIGWSIFYFFKSFQYPLPWSEC

Biological target: T1, Homer1 EVH1 domain
Assay: enrichment score (AUC of log2 frequency ratio across FACS sorting rounds) (log2 AUC); higher = stronger enrichment for Homer1 EVH1 binding

Binder | enrichment score
B1 | 2.56
B2 | 1.86
B3 | 2.04
B4 | 1.11
B5 | 0.199
B6 | -0.488
B7 | -2.37
B8 | -0.284
B9 | 1.63
B10 | -0.276
B11 | 3.9
B12 | -3.11
B13 | 2.07
B14 | 1.25
B15 | -0.321
B16 | 3.48
B17 | 4.51
B18 | -0.0789
B19 | -0.697
B20 | 2.72
B21 | 2.66
B22 | 2.35

Binder | enrichment score
B23 | -2.32
B24 | -2.64
B25 | -0.754
B26 | -0.595
B27 | 2.8
B28 | 3.46
B29 | -0.662
B30 | 0.356
B31 | 4.37
B32 | 1.45
B33 | 0.595
B34 | -0.648
B35 | -0.854
B36 | 2.31
B37 | 3.7
B38 | 4.68
B39 | 2.15
B40 | 3.77
B41 | -1.76
B42 | 6.27
B43 | 1.01
B44 | 1.15
